Here are results for one molecule from PMC6508567.

No constants are given. Whether binding was seen depends on the method and setting.

The experiment has as its target serpin Z4 (barley (Hordeum vulgare) cv. Harrington) (UniProt P06293). The experiment can be described thus: condition: only with the reducing agent β-mercaptoethanol; cross-linking; as a5 (CuCl2 oxidation), but SDS-PAGE with the reducing agent β-mercaptoethanol, immunoblot; both purified.

B1: serpin Z4 (protein, UniProt P06293 1-399)
chain: MATTLATDVRLSIAHQTRFALRLRSAISSNPERAAGNVAFSPLSLHVALSLITAGAAATRDQLVAILGDGGAGDAKELNALAEQVVQFVLANESSTGGPRIAFANGIFVDASLSLKPSFEELAVCQYKAKTQSVDFQHKTLEAVGQVNSWVEQVTTGLIKQILPPGSVDNTTKLILGNALYFKGAWDQKFDESNTKCDSFHLLDGSSIQTQFMSSTKKQYISSSDNLKVLKLPYAKGHDKRQFSMYILLPGAQDGLWSLAKRLSTEPEFIENHIPKQTVEVGRFQLPKFKISYQFEASSLLRALGLQLPFSEEADLSEMVDSSQGLEISHVFHKSFVEVNEEGTEAGAATVAMGVAMSMPLKVDLVDFVANHPFLFLIREDIAGVVVFVGHVTNPLISA
For B1, the binding entry is “no binding”.
